According to the supplement of paper PMC10849652:
This is one part of the list.

Protein sequences, listed by entry. Tags and fused reporters are not part of them. Lines headed by an entry give the natural chain unless they say otherwise; changes in a name come on top.
UniProt O95202: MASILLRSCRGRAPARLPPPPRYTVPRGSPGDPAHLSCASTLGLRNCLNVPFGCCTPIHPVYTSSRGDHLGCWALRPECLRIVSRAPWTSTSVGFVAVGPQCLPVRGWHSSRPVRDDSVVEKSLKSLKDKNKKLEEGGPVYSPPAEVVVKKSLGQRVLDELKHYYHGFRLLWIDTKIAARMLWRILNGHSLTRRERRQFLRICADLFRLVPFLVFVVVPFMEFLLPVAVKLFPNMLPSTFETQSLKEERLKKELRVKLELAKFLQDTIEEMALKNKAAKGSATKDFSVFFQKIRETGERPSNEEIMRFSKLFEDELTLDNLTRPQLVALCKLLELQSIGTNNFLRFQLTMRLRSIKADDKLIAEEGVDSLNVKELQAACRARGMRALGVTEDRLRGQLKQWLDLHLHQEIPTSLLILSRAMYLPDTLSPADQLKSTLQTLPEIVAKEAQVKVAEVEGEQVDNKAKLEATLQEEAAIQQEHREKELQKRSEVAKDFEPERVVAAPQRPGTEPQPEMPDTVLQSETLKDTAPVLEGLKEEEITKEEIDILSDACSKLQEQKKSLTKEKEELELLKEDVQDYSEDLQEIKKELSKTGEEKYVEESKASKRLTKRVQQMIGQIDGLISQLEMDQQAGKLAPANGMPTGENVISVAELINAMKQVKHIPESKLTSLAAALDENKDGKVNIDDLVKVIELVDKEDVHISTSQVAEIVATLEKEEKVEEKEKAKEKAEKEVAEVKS
UniProt P49917: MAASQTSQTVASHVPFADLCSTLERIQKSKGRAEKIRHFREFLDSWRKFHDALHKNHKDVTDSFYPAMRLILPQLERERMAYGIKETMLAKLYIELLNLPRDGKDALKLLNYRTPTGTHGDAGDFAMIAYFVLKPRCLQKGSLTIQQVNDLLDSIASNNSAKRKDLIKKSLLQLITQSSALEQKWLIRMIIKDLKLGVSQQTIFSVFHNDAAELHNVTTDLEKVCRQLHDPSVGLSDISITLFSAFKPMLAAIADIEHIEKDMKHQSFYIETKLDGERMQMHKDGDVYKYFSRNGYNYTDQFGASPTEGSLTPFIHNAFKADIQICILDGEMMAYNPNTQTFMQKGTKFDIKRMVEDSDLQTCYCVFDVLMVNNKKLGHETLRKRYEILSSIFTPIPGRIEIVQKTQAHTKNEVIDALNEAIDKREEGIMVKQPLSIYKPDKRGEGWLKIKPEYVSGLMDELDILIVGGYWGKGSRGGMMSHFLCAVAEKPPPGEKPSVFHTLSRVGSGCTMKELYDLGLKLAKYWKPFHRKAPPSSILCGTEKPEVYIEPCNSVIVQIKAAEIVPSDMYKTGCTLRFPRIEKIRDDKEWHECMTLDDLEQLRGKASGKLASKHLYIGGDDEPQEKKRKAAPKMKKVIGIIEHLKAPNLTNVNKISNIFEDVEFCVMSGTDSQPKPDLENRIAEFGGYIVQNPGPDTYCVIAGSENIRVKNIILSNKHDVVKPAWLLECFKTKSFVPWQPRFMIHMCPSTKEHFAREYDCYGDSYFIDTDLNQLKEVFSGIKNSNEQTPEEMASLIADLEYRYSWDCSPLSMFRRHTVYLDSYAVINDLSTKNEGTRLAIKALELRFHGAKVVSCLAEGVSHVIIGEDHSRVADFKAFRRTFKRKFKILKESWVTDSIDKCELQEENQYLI
UniProt O15116: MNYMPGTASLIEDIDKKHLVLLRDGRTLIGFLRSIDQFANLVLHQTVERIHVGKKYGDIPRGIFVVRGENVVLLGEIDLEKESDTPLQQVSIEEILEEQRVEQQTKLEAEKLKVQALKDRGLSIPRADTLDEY
UniProt Q8N9N7: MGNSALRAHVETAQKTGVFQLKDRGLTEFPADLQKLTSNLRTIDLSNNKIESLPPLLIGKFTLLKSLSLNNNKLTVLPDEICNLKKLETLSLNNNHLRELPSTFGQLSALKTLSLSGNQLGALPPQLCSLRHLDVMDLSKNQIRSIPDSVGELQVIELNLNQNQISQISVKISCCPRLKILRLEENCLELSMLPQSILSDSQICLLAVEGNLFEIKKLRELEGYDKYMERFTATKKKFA
UniProt Q9Y333: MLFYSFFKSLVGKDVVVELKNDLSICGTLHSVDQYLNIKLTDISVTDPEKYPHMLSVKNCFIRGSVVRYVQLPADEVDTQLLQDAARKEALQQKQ
UniProt P62310: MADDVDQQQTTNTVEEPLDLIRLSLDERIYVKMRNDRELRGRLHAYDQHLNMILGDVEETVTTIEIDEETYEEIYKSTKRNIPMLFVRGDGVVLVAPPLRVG
UniProt Q9C0E8: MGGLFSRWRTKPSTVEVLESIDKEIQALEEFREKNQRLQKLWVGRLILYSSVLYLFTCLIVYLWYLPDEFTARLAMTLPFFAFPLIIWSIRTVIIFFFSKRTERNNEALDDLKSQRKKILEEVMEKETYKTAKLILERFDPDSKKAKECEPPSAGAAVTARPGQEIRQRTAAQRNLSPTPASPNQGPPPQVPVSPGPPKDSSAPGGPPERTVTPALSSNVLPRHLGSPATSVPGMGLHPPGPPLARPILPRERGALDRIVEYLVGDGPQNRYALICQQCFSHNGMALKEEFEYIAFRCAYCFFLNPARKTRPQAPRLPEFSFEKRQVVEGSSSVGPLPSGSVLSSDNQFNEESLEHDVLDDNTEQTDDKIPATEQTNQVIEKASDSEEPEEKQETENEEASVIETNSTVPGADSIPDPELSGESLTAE
UniProt Q14739: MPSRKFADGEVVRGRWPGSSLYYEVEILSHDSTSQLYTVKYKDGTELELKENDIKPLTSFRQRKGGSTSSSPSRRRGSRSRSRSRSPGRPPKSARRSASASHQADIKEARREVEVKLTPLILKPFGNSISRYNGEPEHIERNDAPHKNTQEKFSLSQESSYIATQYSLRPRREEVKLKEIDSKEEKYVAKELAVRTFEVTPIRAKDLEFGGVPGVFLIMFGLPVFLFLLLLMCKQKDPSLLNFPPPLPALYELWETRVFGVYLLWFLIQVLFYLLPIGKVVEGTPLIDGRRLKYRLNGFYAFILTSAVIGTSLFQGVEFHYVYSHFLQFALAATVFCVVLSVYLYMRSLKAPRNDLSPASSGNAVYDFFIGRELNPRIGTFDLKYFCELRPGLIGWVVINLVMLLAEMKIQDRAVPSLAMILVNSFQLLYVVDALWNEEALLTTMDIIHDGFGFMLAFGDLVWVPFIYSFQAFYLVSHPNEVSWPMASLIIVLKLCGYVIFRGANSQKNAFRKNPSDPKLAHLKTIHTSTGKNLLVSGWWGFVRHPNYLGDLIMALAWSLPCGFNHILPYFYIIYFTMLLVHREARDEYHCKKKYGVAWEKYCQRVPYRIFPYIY
UniProt P07195, whole entry, looked up: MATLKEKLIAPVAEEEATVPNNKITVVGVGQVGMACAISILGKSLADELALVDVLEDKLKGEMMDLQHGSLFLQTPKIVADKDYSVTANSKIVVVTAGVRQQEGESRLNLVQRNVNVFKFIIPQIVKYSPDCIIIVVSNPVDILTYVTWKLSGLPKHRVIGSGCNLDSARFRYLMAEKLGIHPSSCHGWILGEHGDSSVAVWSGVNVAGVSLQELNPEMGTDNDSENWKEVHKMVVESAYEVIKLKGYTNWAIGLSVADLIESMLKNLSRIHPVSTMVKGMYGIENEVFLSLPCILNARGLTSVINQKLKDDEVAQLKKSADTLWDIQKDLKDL
UniProt Q92539: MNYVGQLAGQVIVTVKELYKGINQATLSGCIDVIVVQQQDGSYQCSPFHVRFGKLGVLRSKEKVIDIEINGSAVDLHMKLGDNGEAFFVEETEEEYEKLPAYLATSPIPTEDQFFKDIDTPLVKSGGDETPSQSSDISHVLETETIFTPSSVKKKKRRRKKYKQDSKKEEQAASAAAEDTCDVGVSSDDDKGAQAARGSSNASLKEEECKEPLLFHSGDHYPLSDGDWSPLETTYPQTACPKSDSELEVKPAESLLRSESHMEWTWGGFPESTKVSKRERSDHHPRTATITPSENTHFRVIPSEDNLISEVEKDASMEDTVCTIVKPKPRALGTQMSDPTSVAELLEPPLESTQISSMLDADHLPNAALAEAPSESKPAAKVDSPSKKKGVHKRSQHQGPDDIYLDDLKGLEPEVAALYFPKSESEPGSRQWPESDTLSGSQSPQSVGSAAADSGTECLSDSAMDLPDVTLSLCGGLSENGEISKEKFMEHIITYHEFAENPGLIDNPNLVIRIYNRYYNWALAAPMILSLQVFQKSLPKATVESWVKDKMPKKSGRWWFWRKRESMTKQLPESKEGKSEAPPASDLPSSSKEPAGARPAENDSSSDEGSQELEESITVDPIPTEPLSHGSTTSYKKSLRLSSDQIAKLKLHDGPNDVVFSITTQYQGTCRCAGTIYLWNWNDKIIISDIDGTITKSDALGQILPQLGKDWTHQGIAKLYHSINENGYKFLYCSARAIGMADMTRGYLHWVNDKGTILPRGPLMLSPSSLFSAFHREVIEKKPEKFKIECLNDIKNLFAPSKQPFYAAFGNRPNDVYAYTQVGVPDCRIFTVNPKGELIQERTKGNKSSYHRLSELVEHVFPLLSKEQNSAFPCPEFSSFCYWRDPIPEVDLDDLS
UniProt Q6UWE0: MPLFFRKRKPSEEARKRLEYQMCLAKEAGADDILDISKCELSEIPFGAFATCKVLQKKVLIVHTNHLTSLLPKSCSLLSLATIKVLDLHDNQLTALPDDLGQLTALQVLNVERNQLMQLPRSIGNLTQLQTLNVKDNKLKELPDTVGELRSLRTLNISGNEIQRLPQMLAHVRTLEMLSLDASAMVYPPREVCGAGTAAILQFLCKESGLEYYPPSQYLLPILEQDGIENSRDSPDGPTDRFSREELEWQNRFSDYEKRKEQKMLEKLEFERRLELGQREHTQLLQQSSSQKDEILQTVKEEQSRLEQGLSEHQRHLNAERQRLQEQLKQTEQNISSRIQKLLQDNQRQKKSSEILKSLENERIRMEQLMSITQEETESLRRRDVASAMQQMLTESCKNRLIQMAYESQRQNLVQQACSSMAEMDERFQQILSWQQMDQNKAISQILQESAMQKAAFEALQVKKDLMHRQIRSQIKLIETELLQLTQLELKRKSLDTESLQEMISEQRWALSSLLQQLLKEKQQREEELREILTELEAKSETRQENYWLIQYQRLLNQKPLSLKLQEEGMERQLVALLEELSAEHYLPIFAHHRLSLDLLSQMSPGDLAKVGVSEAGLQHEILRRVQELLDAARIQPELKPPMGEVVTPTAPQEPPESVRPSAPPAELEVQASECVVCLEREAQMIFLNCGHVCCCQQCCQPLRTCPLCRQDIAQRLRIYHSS
UniProt P62312: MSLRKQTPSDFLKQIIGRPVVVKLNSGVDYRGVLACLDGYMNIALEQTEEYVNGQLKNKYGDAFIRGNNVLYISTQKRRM
UniProt Q9UGP4: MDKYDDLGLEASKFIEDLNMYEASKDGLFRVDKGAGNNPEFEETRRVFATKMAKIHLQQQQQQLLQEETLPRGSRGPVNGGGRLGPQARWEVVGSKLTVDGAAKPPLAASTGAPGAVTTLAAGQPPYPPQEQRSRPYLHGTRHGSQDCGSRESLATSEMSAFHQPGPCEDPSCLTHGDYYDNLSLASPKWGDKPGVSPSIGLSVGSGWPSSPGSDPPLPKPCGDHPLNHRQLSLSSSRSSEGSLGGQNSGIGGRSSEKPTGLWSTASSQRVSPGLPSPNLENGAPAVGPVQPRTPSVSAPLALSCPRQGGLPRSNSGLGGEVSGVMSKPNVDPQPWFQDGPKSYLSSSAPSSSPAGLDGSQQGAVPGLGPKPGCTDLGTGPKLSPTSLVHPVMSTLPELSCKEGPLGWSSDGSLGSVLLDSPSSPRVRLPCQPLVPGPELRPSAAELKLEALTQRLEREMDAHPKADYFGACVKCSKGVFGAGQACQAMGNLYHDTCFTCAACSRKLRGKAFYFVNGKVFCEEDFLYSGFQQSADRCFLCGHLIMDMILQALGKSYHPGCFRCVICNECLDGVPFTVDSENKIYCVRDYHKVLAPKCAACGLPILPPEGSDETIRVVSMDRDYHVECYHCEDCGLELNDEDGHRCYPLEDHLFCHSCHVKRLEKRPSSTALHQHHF
UniProt Q9NUP9: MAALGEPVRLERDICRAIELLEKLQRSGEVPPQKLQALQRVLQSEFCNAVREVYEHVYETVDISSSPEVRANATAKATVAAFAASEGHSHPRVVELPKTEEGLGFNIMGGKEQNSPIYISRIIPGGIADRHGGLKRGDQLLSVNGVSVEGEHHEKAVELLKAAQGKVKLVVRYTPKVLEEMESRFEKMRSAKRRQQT

Tests used:
Assay in all cases: log2 fold change, soluble protein after heating vs DMSO (PISA); higher = thermal stabilisation; K562 lysate, 10 uM; active = over 0.2 and 3.5 SD of the protein, either way, in both replicates (recomputed)
[1] = compound: C#Cc1cccc(Nc2ncnc3cc(OCCOC)c(OCCOC)cc23)c1 [erlotinib]
In short: (§1)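 Following dounce homogenisation of K562 pellets in PBS pH 7.4 with 1 mM MgCl2, crude extract at 1 mg/mL protein was incubated for 30 min with 10 μM compound. Aliquots were then heated for 3 min over 48°C-58°C and pooled, NP-40 was added to 0.5% at 4°C, and soluble protein was recovered as the supernatant at 21,000xg for 90 min. Channel-sum-equalised TMTpro 16plex LC-MS/MS quantified this protein. Each value, from duplicates, is a log-two fold change in thermal stability relative to solvent controls.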

[2] = compound: C/C(=N\NC(=O)C1=CC(=CC=C1)S(=O)(=O)N2CCOCC2)/C3=C(C=CC(=C3)Cl)O
In short: as §1

[3] = compound: C1=CC(=CC=C1C2=NC3=C(N2)C=C(C=C3)C(=O)N)OC4=CC=C(C=C4)Cl
In short: as §1

[4] = compound: C1=CC2=C(C=CC(=C2)/C=C\3/C(=O)NC(=NCC4=CC=CS4)S3)N=C1
In short: as §1

[5] = compound: C1=CC2=NC=CN=C2C=C1/C=C/3\C(=O)NC(=O)S3
In short: as §1

[6] = compound: C1=CC=C(C=C1)C2=NC(=C(N2)C3=CC=NC=C3)C4=CC(=C(C=C4)Cl)O
In short: as §1

[7] = compound: C1=CC=C2C(=C1)C3=NNC4=CC=CC(=C43)C2=O
In short: as §1

[8] = compound: C1CCN(C1)C(=O)NC2=CC=CC(=C2)NC3=NC=C(C(=N3)NCCC4=CN=CN4)Br
In short: as §1

[9] = compound: C1CN(CCC1(CC2=CC=C(C=C2)Cl)N)C3=NC=NC4=C3C=CN4
In short: as §1

[10] = compound: C1COCCN1CCN2C3=CC=CC=C3N=C2NC(=O)C4=CC(=CC=C4)[N+](=O)[O-] [IRAK-1-4 Inhibitor I]
In short: as §1

[11] = compound: C=CC(=O)N1CCC[C@@H](n2nc(-c3ccc(Oc4ccccc4)cc3)c3c(N)ncnc32)C1 [ibrutinib]
In short: as §1

[12] = compound: CC(=O)c1cnc2ccc(-c3cc(Cl)c(O)c(Cl)c3)nc2c1N[C@H]1CC[C@H](CN(C)C)CC1
In short: as §1

[13] = compound: CC(C)(C)Cn1c(N)nc2ccc(-c3[nH]c(C(C)(C)C)nc3-c3ccc(F)cc3)nc21 [ralimetinib]
In short: as §1

[14] = compound: CC(C)(O)CC(=O)NCCn1ccc2ncnc(Nc3ccc(Oc4cccc(C(F)(F)F)c4)c(Cl)c3)c21
In short: as §1

[15] = compound: CC(C)C1=C2N=C(C=C(N2N=C1)NCC3=CC=CC=C3)NCCCCCCN
In short: as §1

[16] = compound: CC1=C(C(CC(=O)N1)C2=CC=C(C=C2)C(F)(F)F)C(=O)NC3=C(C=C4C(=C3)C=NN4)F
In short: as §1

[17] = compound: CC1=C(C2=C(C=C1)C(=O)C3=CC=CC=C3N2CCCN)C
In short: as §1

[18] = compound: CC1=C(C=C(C=C1)NC(=O)C2=CC(=CC=C2)C(C)(C)C#N)NC3=CC4=C(C=C3)N=CN(C4=O)C
In short: as §1

[19] = compound: CC1=C(C=C(C=C1)NC(=O)C2=CC(=CC=C2)N(C)C)NC(=O)C3=CC=C(C=C3)O
In short: as §1

[20] = compound: CC1=CC=C(C=C1)SC2=C3C=C(SC3=CN=C2)C(=O)N
In short: as §1

Measured: log2 fold change

LETM1 (UniProt O95202)
inactive: [1] -0.012 | [2] 0.061 | [3] -0.157 | [4] 0.012 | [5] 0.014 | [6] 0.01 | [7] 0.044 | [8] -0.006 | [9] 0.02 | [10] -0.013 | [11] -0.006 | [12] -0.001 | [13] 0.007 | [14] 0.002 | [15] 0.045 | [16] -0.026 | [17] 0.026 | [18] 0.036 | [19] 0 | [20] 0.037

LIG4 (UniProt P49917)
inactive: [1] 0.107 | [2] 0.014 | [3] -0.04 | [4] 0.028 | [5] 0.002 | [6] 0.024 | [7] -0.003 | [8] 0.009 | [9] -0.057 | [10] -0.001 | [11] 0.056 | [12] 0.174 | [13] -0.001 | [14] -0.023 | [15] 0.013 | [16] -0.016 | [17] -0.021 | [18] 0.004 | [19] 0.015 | [20] 0.109

LSM1 (UniProt O15116)
inactive: [1] -0.02 | [2] 0.073 | [3] 0.006 | [4] 0.027 | [5] -0.093 | [6] -0.009 | [7] -0.022 | [8] 0.059 | [9] 0.03 | [10] 0.015 | [11] 0.133 | [12] -0.01 | [13] -0.012 | [14] 0.028 | [15] -0.018 | [16] -0.021 | [17] 0.06 | [18] 0.008 | [19] 0.006 | [20] 0.019

LRRC57 (UniProt Q8N9N7)
inactive: [1] -0.026 | [2] 0.032 | [3] 0.031 | [4] -0.005 | [5] 0.018 | [6] -0.008 | [7] 0.009 | [8] -0.016 | [9] -0.02 | [10] 0.006 | [11] 0.009 | [12] -0.024 | [13] -0.004 | [14] -0.007 | [15] -0.009 | [16] -0.013 | [17] -0.005 | [18] 0.016 | [19] -0.033 | [20] -0.05

LSM2 (UniProt Q9Y333)
inactive: [1] -0.002 | [2] -0.005 | [3] 0.006 | [4] -0.045 | [5] 0.007 | [6] 0.011 | [7] -0.031 | [8] 0.033 | [9] 0.017 | [10] 0.019 | [11] -0.045 | [12] -0.005 | [13] -0.036 | [14] -0.001 | [15] 0.022 | [16] -0.079 | [17] 0.007 | [18] 0.02 | [19] -0.004 | [20] -0.005

LSM3 (UniProt P62310)
inactive: [1] 0.008 | [2] -0.073 | [3] 0.055 | [4] -0.001 | [5] -0.001 | [6] -0.024 | [7] -0.069 | [8] 0.027 | [9] 0.035 | [10] 0.024 | [11] -0.016 | [12] -0.032 | [13] 0.002 | [14] -0.086 | [15] -0.003 | [16] -0.045 | [17] -0.008 | [18] 0.061 | [19] 0.002 | [20] -0.028

LDHA isoform 3 (UniProt P00338)
inactive: [1] -0.011 | [2] -0.025 | [3] 0.023 | [4] -0.022 | [5] 0.004 | [6] -0.003 | [7] 0.029 | [8] 0.006 | [9] 0.013 | [10] 0.017 | [11] 0.025 | [12] -0.013 | [13] 0.006 | [14] 0.043 | [15] 0.01 | [16] -0.027 | [17] 0.009 | [18] 0.006 | [19] -0.032 | [20] -0.023

LNPK (UniProt Q9C0E8)
inactive: [1] -0.008 | [2] -0.037 | [3] 0.02 | [4] -0.036 | [5] -0.032 | [6] -0.004 | [7] -0.053 | [8] 0.011 | [9] 0.036 | [10] 0 | [11] -0.033 | [12] 0 | [13] -0.008 | [14] 0.04 | [15] 0.007 | [16] 0.023 | [17] -0.013 | [18] -0.001 | [19] -0.018 | [20] -0.016

LBR (UniProt Q14739)
inactive: [1] 0.03 | [2] 0.052 | [3] -0.066 | [4] -0.021 | [5] -0.081 | [6] -0.028 | [7] -0.08 | [8] -0.032 | [9] 0.005 | [10] 0.028 | [11] 0.034 | [12] -0.01 | [13] 0.019 | [14] -0.121 | [15] -0.029 | [16] 0.018 | [17] 0.065 | [18] -0.089 | [19] -0.026 | [20] -0.036

LDHB (UniProt P07195)
inactive: [1] -0.004 | [2] 0.006 | [3] 0.008 | [4] 0.001 | [5] 0 | [6] -0.007 | [7] 0.02 | [8] 0.007 | [9] -0.016 | [10] 0.009 | [11] 0.006 | [12] 0.002 | [13] 0 | [14] -0.02 | [15] -0.002 | [16] -0.014 | [17] -0.006 | [18] 0.012 | [19] -0.02 | [20] -0.025

LPIN2 (UniProt Q92539)
inactive: [1] -0.029 | [2] -0.004 | [3] 0.027 | [4] 0.057 | [5] -0.02 | [6] 0.003 | [7] 0.088 | [8] 0.018 | [9] -0.042 | [10] 0.022 | [11] 0.005 | [12] 0.043 | [13] -0.012 | [14] -0.035 | [15] 0.024 | [16] 0.167 | [17] 0.013 | [18] 0.06 | [19] 0.062 | [20] -0.003

LRRC14 (UniProt Q15048)
inactive: [1] 0.031 | [2] -0.035 | [3] 0.046 | [4] 0.121 | [5] -0.08 | [6] 0.052 | [7] -0.013 | [8] -0.126 | [9] 0.062 | [10] 0.066 | [11] 0.071 | [12] -0.038 | [13] 0.007 | [14] -0.049 | [15] -0.09 | [16] 0.01 | [17] -0.148 | [18] 0.031 | [19] 0.044 | [20] 0.1

LRSAM1 (UniProt Q6UWE0)
inactive: [1] -0.006 | [2] 0.014 | [3] 0.029 | [4] -0.002 | [5] -0.028 | [6] -0.005 | [7] 0.016 | [8] -0.019 | [9] 0.03 | [10] 0.017 | [11] 0.048 | [12] -0.031 | [13] 0.02 | [14] -0.028 | [15] -0.01 | [16] 0.012 | [17] -0.01 | [18] 0.026 | [19] -0.01 | [20] -0.019

LSM6 (UniProt P62312)
inactive: [1] -0.012 | [2] -0.068 | [3] 0.007 | [4] -0.007 | [5] 0.003 | [6] -0.013 | [7] 0.036 | [8] 0.022 | [9] 0.007 | [10] -0.002 | [11] 0.024 | [12] 0.003 | [13] 0.023 | [14] 0.012 | [15] 0.048 | [16] -0.02 | [17] 0.008 | [18] 0.005 | [19] -0.025 | [20] 0.012

LIMD1 (UniProt Q9UGP4)
inactive: [1] 0.004 | [2] 0.001 | [3] 0.052 | [4] 0.009 | [5] -0.005 | [6] 0.013 | [7] 0.035 | [8] -0.027 | [9] 0.042 | [10] 0.012 | [11] 0.017 | [12] 0.014 | [13] -0.028 | [14] 0.012 | [15] -0.013 | [16] 0.001 | [17] 0.079 | [18] 0.068 | [19] 0.029 | [20] -0.038

LIN7C (UniProt Q9NUP9)
inactive: [1] 0.038 | [2] -0.053 | [3] -0.008 | [4] -0.026 | [5] 0.002 | [6] -0.01 | [7] 0.068 | [8] 0.032 | [9] -0.001 | [10] -0.073 | [11] 0.037 | [12] 0.051 | [13] 0.077 | [14] 0.099 | [15] -0.012 | [16] 0.028 | [17] 0.009 | [18] -0.025 | [19] -0.042 | [20] -0.011
